Source: PubChem BioAssay AID485298 (National Center for Advancing Translational Sciences (NCATS), 2010)
Shown are results outside the selection of hits, which stands elsewhere. The source made the active and inactive calls. The call rests on the fitted dose curve; in most records, active means well fitted activation curve with a large enough effect; inconclusive means small, poorly fitted or top-dose-only effect; inactive means no such curve, though single readings can be large or run the other way.

Test: qHTS Assay for Small Molecule Inhibitors of Mitochondrial Division or Activators of Mitochondrial Fusion;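 further: temperature-sensitive fusion mutants such as fzo1-1 at 37 °C on non-fermentable ethanol glycerol medium; % of control where 0% means no effect; nearly all actives have a fitted effect of over 45% in size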
Conditions: S. cerevisiae fusion-defective mutant growth rescue, CellTiterGlo 48 h; at 46.1 µM (top of the series)
Excerpt: NIH Chemical Genomics Center [NCGC] NIH Molecular Libraries Probe Production centers Network [MLPCN] MLPCN Grant: MH081279-01 Assay Submitter (PI): Jodi M. Nunnari NCGC Assay Overview: The budding yeast S. cerevisiae is a powerful system to study mitochondrial fusion. Unlike other organisms, yeast cells without functional mitochondrial DNA (mtDNA) can be propagated and studied as long as they maintain a mitochondrial compartment and are provided with a fermentable carbon source. When mitochondrial fusion is blocked in yeast, mitochondrial tubules rapidly fragment and division continues unopposed. Under conditions where fusion is compromised in mammalian cells, nearly identical changes in mitochondrial structure have been observed. Thus, these findings indicate that steady state mitochondrial structure in cells is a characteristic and specific indicator of fusion activity. […] We have developed and optimized a luminescence cell viability assay in 1536 well format for the identification of inhibitors in the yeast mitochondrial fusion-defective assay.
The yeast glycerol stocks where kindly supplied by the laboratory of Dr. Jodi Nunnari, University of California, Davis. […] The CellTiterGlo luminescence reagent, containing luciferase and luciferin, were purchased from Promega, and the reagents were stored according to manufacturer's instructions. […] 7.#Read using bio-luminescence protocol on Viewlux.

| SMILES | growth rescue (activation) |
| --- | --- |
| O=C1CC(c2ccccc2)Oc2cc(O)ccc21 (stereo unspecified) | inactive: -40.7% |
